Here are results for two compounds from publication PMC4904262 (ACS Medicinal Chemistry Letters, 2016).

Series [1] is described as follows: in vitro. Particulars: human, microsomes.
A short description of series [2]: in vitro. The note with it: mouse, microsomes.
The nature of series [3]: in vitro. Particulars: rat, microsomes.
The next series addresses MAPKAP-K2 (Homo sapiens, UniProt P49137). Particulars: 1 µM, ATP at Km.
The next series has as its target MAPKAP-K3 (Homo sapiens, UniProt Q16644). Particulars: 1 µM, ATP at Km.
A further series is described as follows: in vivo. The note with it: mouse, iv, 0.2 mg/kg.
Another series deals with CDK9/CYCLINT1 (Homo sapiens, UniProt P50750). Particulars: 1 µM, ATP at Km.
The next series has as its target PKA (Homo sapiens, UniProt P17612). The note with it: 1 µM, ATP at Km.

One may read the microsomal CLint as a measure of how fast metabolising enzymes remove a compound, apart from limits set by blood flow. What is called Vd is a proportionality between amount in the body and measured concentration, not a real space. A low value points to little distribution into tissue. By clearance is commonly meant the rate of elimination divided by the concentration.

Compound `CC(=O)Nc1ccc2c(N)ncc(-c3ccc(-c4cnn(C)c4)cc3)c2c1` [Compound 63] gave a microsomal CLint in “in vitro [1]” of less than 10 µL/min/mg. The microsomal CLint at 1 µM in “in vitro [2]” turned out to be 20 µL/min/mg; in “in vitro [3]”, 23 µL/min/mg.

Consider `COC1CN(C(=O)c2ccc3c(N)ncc(-c4ccc(-c5cnn(C)c5)cc4)c3c2)C1` [Compound 59], for which the percentage effect at MAPKAP-K2 is listed as -9%; on MAPKAP-K3, -7%; on CDK9/CYCLINT1 it was -14%; at PKA, 20%. Also, in the series “in vitro [1]”, the microsomal CLint was less than 10 µL/min/mg. The compound further came in with a Vd in the series “in vivo” of 1.62 L/kg. Further, the clearance in the series “in vivo” is 1.57 L/h/kg. Besides, in the series “in vitro [2]”, the microsomal CLint at 1 µM was determined as 38 µL/min/mg.
